We go through one molecule from paper PMC8096250.

The target in the experiment is T1, Gar1 (S. cerevisiae) (UniProt P28007).
T1 sequence: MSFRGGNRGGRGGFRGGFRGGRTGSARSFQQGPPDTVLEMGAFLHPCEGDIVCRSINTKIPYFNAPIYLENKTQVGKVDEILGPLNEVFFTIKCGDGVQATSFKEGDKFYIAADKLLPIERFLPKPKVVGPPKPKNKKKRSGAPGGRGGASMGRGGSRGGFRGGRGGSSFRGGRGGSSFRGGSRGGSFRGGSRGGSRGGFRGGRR
In words: co-purification after co-expression (Ni-NTA, then SEC); Cbf5, Nop10 and Gar1 co-expressed in E. coli BL21 (DE3); lysate treated with RNase A, DNase and PEI; HisTrap in 50 mM Tris/HCl pH 8.0, 0.5 M NaCl, 10% glycerol, imidazole gradient; Superdex 200; fractions analysed by SDS-PAGE.

Results are given in words; binding and its absence hold for the method and conditions named. Some results given as binding are weak or reduced against the parent protein; the word gives no strength.

B1: Nop10 (protein, UniProt Q6Q547 1-58)
chain: MHLMYTLGPDGKRIYTLKKVTESGEITKSAHPARFSPDDKYSRQRVTLKKRFGLVPGQ
For the molecule B1, the binding entry is given as “binds”.
